The source of these data is patent US20250283871A1, “COMPOSITIONS AND METHODS FOR MODULATING THE INTERACTION BETWEEN SS18-SSX FUSION ONCOPROTEIN AND NUCLEOSOMES” (Dana-Farber Cancer Institute, Inc., priority 2020, published 2025).

Sequences and labels used below:
B1: UBA1 (protein, UniProt P22314 2-1058, looked up)
Ubiquitin-like …: SSSPLSKKRRVSGPDPKPGSNCSPAQSVLSEVPSVPTNGMAKNGSEADIDEGLYSRQLYVLGHEAMKRLQTSSVLVSGLRGLGVEIAKNIILGGVKAVTLHDQGTAQWADLSSQFYLREEDIGKNRAEVSQPRLAELNSYVPVTAYTGPLVEDFLSGFQVVVLTNTPLEDQLRVGEFCHNRGIKLVVADTRGLFGQLFCDFGEEMILTDSNGEQPLSAMVSMVTKDNPGVVTCLDEARHGFESGDFVSFSEVQGMVELNGNQPMEIKVLGPYTFSICDTSNFSDYIRGGIVSQVKVPKKISFKSLVASLAEPDFVVTDFAKFSRPAQLHIGFQALHQFCAQHGRPPRPRNEEDAAELVALAQAVNARALPAVQQNNLDEDLIRKLAYVAAGDLAPINAFIGGLAAQEVMKACSGKFMPIMQWLYFDALECLPEDKEVLTEDKCLQRQNRYDGQVAVFGSDLQEKLGKQKYFLVGAGAIGCELLKNFAMIGLGCGEGGEIIVTDMDTIEKSNLNRQFLFRPWDVTKLKSDTAAAAVRQMNPHIRVTSHQNRVGPDTERIYDDDFFQNLDGVANALDNVDARMYMDRRCVYYRKPLLESGTLGTKGNVQVVIPFLTESYSSSQDPPEKSIPICTLKNFPNAIEHTLQWARDEFEGLFKQPAENVNQYLTDPKFVERTLRLAGTQPLEVLEAVQRSLVLQRPQTWADCVTWACHHWHTQYSNNIRQLLHNFPPDQLTSSGAPFWSGPKRCPHPLTFDVNNPLHLDYVMAAANLFAQTYGLTGSQDRAAVATFLQSVQVPEFTPKSGVKIHVSDQELQSANASVDDSRLEELKATLPSPDKLPGFKMYPIDFEKDDDSNFHMDFIVAASNLRAENYDIPSADRHKSKLIAGKIIPAIATTTAAVVGLVCLELYKVVQGHRQLDSYKNGFLNLALPFFGFSEPLAAPRHQYYNQEWTLWDRFEVQGLQPNGEEMTLKQFLDYFKTEHKLEITMLSQGVSMLYSFFMPAAKLKERLDQPMTEIVSRVSKRKLGRHVRALVLELCCNDESGEDVEVPYVRYTIR
B2: CAPS2 (protein, UniProt Q9BXY5 1-538, looked up)
Calcyphosin-2: MDLEVKGVAATSRSQIQPFFGRKKPLQQRWTSESWTNQNSCPPVVPRLDLGSLVDSDDEDNFSYIPLSTANLPNSSSTLGWVTPCQTPYTQYHLNKLDQNIIPENLPAPTDKCKLKYQQCKTEIKEGYKQYSQRNAENTKSNVTHKQSPRNKIDEKCVQDEEANTDDLTTLDRKAILQQGYADNSCDKQQRARKLDAEIVAAEKKKQIVAEQVMIDHLSRAVISDPEQNLAIEQKESDHILPDSKMTPLRFRKRTLHETKIRTHSTLTENVLSHKLQFDGRIVSRNGRDACRELIGFFFTHDQSLTIYEYRQFGKNRTNVLPFIQKSIYSHQCGRRKGKQYRLGDFYVGATLTFLSSDHLSLPESIKENTLLKLRITNIDQIALDSLKTASMEQEDDIIIQETNDRLVFKAIQDVLKEKLHKRGVRILTGLGKYFQQLDKEGNGLLDKADFKQALKVFHLEVSEKDFESAWLILNDNGNGKVDYGEFKRGIIGEMNEYRKSYVRKAFMKLDFNKSGSVPIINIRKCYCAKKHSQVISG
B3: CPA4 (protein, UniProt Q9UI42 114-421, looked up)
Carboxypeptidase A4: SSNNFNYGAYHSLEAIYHEMDNIAADFPDLARRVKIGHSFENRPMYVLKFSTGKGVRRPAVWLNAGIHSREWISQATAIWTARKIVSDYQRDPAITSILEKMDIFLLPVANPDGYVYTQTQNRLWRKTRSRNPGSSCIGADPNRNWNASFAGKGASDNPCSEVYHGPHANSEVEVKSVVDFIQKHGNFKGFIDLHSYSQLLMYPYGYSVKKAPDAEELDKVARLAAKALASVSGTEYQVGPTCTTVYPASGSSIDWAYDNGIKFAFTFELRDTGTYGFLLPANQIIPTAEETWLGLKTIMEHVRDNLY
B4: PRDX1 (protein, UniProt Q06830 2-199, looked up)
Peroxiredoxin-1: SSGNAKIGHPAPNFKATAVMPDGQFKDISLSDYKGKYVVFFFYPLDFTFVCPTEIIAFSDRAEEFKKLNCQVIGASVDSHFCHLAWVNTPKKQGGLGPMNIPLVSDPKRTIAQDYGVLKADEGISFRGLFIIDDKGILRQITVNDLPVGRSVDETLRLVQAFQFTDKHGEVCPAGWKPGSDTIKPDVQKSKEYFSKQK
B5: ERMP1 (protein, UniProt Q7Z2K6 1-904, looked up)
Endoplasmic reticulum …: MEWGSESAAVRRHRVGVERREGAAAAPPPEREARAQEPLVDGCSGGGRTRKRSPGGSGGASRGAGTGLSEVRAALGLALYLIALRTLVQLSLQQLVLRGAAGHRGEFDALQARDYLEHITSIGPRTTGSPENEILTVHYLLEQIKLIEVQSNSLHKISVDVQRPTGSFSIDFLGGFTSYYDNITNVVVKLEPRDGAQHAVLANCHFDSVANSPGASDDAVSCSVMLEVLRVLSTSSEALHHAVIFLFNGAEENVLQASHGFITQHPWASLIRAFINLEAAGVGGKELVFQTGPENPWLVQAYVSAAKHPFASVVAQEVFQSGIIPSDTDFRIYRDFGNIPGIDLAFIENGYIYHTKYDTADRILTDSIQRAGDNILAVLKHLATSDMLAAASKYRHGNMVFFDVLGLFVIAYPSRIGSIINYMVVMGVVLYLGKKFLQPKHKTGNYKKDFLCGLGITLISWFTSLVTVLIIAVFISLIGQSLSWYNHFYVSVCLYGTATVAKIILIHTLAKRFYYMNASAQYLGEVFFDISLFVHCCFLVTLTYQGLCSAFISAVWVAFPLLTKLCVHKDFKQHGAQGKFIAFYLLGMFIPYLYALYLIWAVFEMFTPILGRSGSEIPPDVVLASILAGCTMILSSYFINFIYLAKSTKKTMLTLTLVCAITFLLVCSGTFFPYSSNPANPKPKRVFLQHMTRTFHDLEGNAVKRDSGIWINGFDYTGISHITPHIPEINDSIRAHCEENAPLCGFPWYLPVHFLIRKNWYLPAPEVSPRNPPHFRLISKEQTPWDSIKLTFEATGPSHMSFYVRAHKGSTLSQWSLGNGTPVTSKGGDYFVFYSHGLQASAWQFWIEVQVSEEHPEGMVTVAIAAHYLSGEDKRSPQLDALKEKFPDWTFPSAWVCTYDLFVF
B6: EFR3A (protein, UniProt Q14156 1-821, looked up)
Protein EFR3 homolog A: MPTRVCCCCSALRPRYKRLVDNIFPEDPKDGLVKTDMEKLTFYAVSAPEKLDRIGSYLAERLSRDVVRHRSGYVLIAMEALDQLLMACHSQSIKPFVESFLHMVAKLLESGEPKLQVLGTNSFVKFANIEEDTPSYHRRYDFFVSRFSAMCHSCHSDPEIRTEIRIAGIRGIQGVVRKTVNDELRATIWEPQHMDKIVPSLLFNMQKIEEVDSRIGPPSSPSATDKEENPAVLAENCFRELLGRATFGNMNNAVRPVFAHLDHHKLWDPNEFAVHCFKIIMYSIQAQYSHHVIQEILGHLDARKKDAPRVRAGIIQVLLEAVAIAAKGSIGPTVLEVFNTLLKHLRLSVEFEANDLQGGSVGSVNLNTSSKDNDEKIVQNAIIQTIGFFGSNLPDYQRSEIMMFIMGKVPVFGTSTHTLDISQLGDLGTRRIQIMLLRSLLMVTSGYKAKTIVTALPGSFLDPLLSPSLMEDYELRQLVLEVMHNLMDRHDNRAKLRGIRIIPDVADLKIKREKICRQDTSFMKKNGQQLYRHIYLGCKEEDNVQKNYELLYTSLALITIELANEEVVIDLIRLAIALQDSAIINEDNLPMFHRCGIMALVAAYLNFVSQMIAVPAFCQHVSKVIEIRTMEAPYFLPEHIFRDKCMLPKSLEKHEKDLYFLTNKIAESLGGSGYSVERLSVPYVPQVTDEDRLSRRKSIVDTVSIQVDILSNNVPSDDVVSNTEEITFEALKKAIDTSGMEEQEKEKRRLVIEKFQKAPFEEIAAQCESKANLLHDRLAQILELTIRPPPSPSGTLTITSGHAQYQSVPVYEMKFPDLCVY
B7: GNAT1 (protein, UniProt P11488 2-350, looked up)
Guanine nucleotide-binding …: GAGASAEEKHSRELEKKLKEDAEKDARTVKLLLLGAGESGKSTIVKQMKIIHQDGYSLEECLEFIAIIYGNTLQSILAIVRAMTTLNIQYGDSARQDDARKLMHMADTIEEGTMPKEMSDIIQRLWKDSGIQACFERASEYQLNDSAGYYLSDLERLVTPGYVPTEQDVLRSRVKTTGIIETQFSFKDLNFRMFDVGGQRSERKKWIHCFEGVTCIIFIAALSAYDMVLVEDDEVNRMHESLHLFNSICNHRYFATTSIVLFLNKKDVFFEKIKKAHLSICFPDYDGPNTYEDAGNYIKVQFLELNMRRDVKEIYSHMTCATDTQNVKFVFDAVTDIIIKENLKDCGLF
B8: GPD2 (protein, UniProt P43304 43-727, looked up)
Glycerol-3-phosphate …: ADCISEPVNREPPSREAQLLTLQNTSEFDILVIGGGATGSGCALDAVTRGLKTALVERDDFSSGTSSRSTKLIHGGVRYLQKAIMKLDIEQYRMVKEALHERANLLEIAPHLSAPLPIMLPVYKWWQLPYYWVGIKLYDLVAGSNCLKSSYVLSKSRALEHFPMLQKDKLVGAIVYYDGQHNDARMNLAIALTAARYGAATANYMEVVSLLKKTDPQTGKVRVSGARCKDVLTGQEFDVRAKCVINATGPFTDSVRKMDDKDAAAICQPSAGVHIVMPGYYSPESMGLLDPATSDGRVIFFLPWQKMTIAGTTDTPTDVTHHPIPSEEDINFILNEVRNYLSCDVEVRRGDVLAAWSGIRPLVTDPKSADTQSISRNHVVDISESGLITIAGGKWTTYRSMAEDTINAAVKTHNLKAGPSRTVGLFLQGGKDWSPTLYIRLVQDYGLESEVAQHLAATYGDKAFEVAKMASVTGKRWPIVGVRLVSEFPYIEAEVKYGIKEYACTAVDMISRRTRLAFLNVQAAEEALPRIVELMGRELNWDDYKKQEQLETARKFLYYEMGYKSRSEQLTDRSEISLLPSDIDRYKKRFHKFDADQKGFITIVDVQRVLESINVQMDENTLHEILNEVDLNKNGQVELNEFLQLMSAIQKGRVSGSRLAILMKTAEENLDRRVPIPVDRSCGGL

In one series the test system is BAF complex subunits and histone proteins. The experiment in a line: Mass spectrometry proteomics of purified HA-SS18 WT and HA-SS18-SSX1 complexes (Tables 5A-5E). More on the design: species or system human. Conditions: HA-SS18WT_CHR_peptides: protein identified in HA-SS18 WT BAF complex purification from nuclease-treated solubilized chromatin (CHR), HEK-293T.
For the molecule B1, the “Total (total peptides)” value stood at 1 and the “Unique (unique peptides)” value worked out at 1.

Take B2: the “Total (total peptides)” value amounted to 1 and the “Unique (unique peptides)” value is reported as 1.

As for B3, the “Total (total peptides)” value is listed as 1 and the “Unique (unique peptides)” value is 1.

As for B4, the “Total (total peptides)” value was determined as 1 and the “Unique (unique peptides)” value amounted to 1.

As to B5, the “Total (total peptides)” value is 1 and the “Unique (unique peptides)” value was 1.

Regarding B6, the “Total (total peptides)” value came out at 1 and the “Unique (unique peptides)” value was 1.

Turning to B7, the “Total (total peptides)” value is 1 and the “Unique (unique peptides)” value worked out at 1.

B8: the “Total (total peptides)” value is recorded as 1 and the “Unique (unique peptides)” value is reported as 1.

The same series, now with this note: HA-SS18WT_NE_peptides: proteins co-purified with HA-SS18 WT from nuclear extract (NE), HEK-293T.
Take B5: the “Total (peptides)” value came out at 2 and the “Unique (peptides)” value is reported as 1.
